According to patent publication US20240325575A1 (WHITEHEAD INSTITUTE FOR BIOMEDICAL RESEARCH, published 2024):
Results are given in words; binding and its absence hold for the method and conditions named. Some binding calls cover weakened binding; strength is not graded here.

By UniProt entry, the sequences of proteins in these tests, tags left out. Where a name states a change or a piece, a line headed by the entry shows the natural chain unless it says otherwise. Residues count along the entry.
UniProt P14434: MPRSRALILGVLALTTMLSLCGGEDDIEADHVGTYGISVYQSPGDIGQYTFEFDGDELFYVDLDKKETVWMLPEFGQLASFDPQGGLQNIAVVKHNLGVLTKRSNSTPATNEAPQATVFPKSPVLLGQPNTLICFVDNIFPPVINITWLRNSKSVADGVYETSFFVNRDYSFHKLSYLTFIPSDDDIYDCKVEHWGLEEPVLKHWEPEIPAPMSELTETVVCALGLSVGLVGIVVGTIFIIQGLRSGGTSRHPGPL
UniProt P14483: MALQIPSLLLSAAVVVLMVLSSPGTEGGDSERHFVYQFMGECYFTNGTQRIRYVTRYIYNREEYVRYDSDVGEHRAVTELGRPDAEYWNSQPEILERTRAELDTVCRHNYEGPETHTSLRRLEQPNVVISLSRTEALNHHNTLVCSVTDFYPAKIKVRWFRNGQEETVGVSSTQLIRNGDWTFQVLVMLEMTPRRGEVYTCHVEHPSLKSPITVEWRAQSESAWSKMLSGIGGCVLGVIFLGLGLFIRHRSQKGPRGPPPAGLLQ
UniProt P05555, residues 17-1153: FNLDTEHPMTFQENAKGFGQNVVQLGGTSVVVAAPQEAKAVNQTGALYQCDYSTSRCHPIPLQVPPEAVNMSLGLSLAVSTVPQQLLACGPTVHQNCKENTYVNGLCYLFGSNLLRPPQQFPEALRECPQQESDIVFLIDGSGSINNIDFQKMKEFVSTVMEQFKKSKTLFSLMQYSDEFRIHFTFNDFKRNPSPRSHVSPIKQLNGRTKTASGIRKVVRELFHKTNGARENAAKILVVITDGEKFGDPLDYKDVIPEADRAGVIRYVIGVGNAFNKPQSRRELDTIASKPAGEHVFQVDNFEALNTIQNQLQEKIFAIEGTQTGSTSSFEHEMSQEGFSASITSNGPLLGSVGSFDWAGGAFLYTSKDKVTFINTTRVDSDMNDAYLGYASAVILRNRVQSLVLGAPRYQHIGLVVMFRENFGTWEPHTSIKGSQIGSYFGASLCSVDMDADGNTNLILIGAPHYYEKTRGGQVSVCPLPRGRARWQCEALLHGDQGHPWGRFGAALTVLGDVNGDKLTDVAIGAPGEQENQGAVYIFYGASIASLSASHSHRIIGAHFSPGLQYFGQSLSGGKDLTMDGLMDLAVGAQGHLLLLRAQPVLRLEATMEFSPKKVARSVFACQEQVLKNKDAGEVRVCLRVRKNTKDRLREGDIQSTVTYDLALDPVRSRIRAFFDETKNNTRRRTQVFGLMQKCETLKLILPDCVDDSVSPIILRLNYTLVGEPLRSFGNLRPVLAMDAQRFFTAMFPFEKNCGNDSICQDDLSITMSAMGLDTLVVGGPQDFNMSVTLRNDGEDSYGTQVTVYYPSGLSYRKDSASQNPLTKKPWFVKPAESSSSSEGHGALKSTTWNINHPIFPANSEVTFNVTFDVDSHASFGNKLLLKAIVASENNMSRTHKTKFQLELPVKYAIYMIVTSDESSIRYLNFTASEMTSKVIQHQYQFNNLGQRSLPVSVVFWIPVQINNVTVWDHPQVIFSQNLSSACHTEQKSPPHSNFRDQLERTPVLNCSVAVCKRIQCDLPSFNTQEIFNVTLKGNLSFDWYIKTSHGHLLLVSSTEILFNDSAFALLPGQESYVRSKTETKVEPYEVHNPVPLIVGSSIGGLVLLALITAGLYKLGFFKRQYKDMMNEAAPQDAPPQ

B1: unlabeled DC8 (anti Class II MHC VHH monomer used as competitor) (VHH)
VHH: QVQLQESGGGLVQPGGSLRLSCTASGFTFSTYYMSWVRKAPGKGPEWVSVMNSSGGDTRYADFVKGRFTISRDNAKNTLYLQMNSLKPEDTALYYCAQGRSDIYPTFTRGQGTQVTVSS
B2: DC13 (anti CD11b VHH) monomer, sortase-labeled at the C-terminus (VHH)
VHH: QVQLQESGGGLVQTGGSLRLSCAASGVDFNWYSMGWFRQAPGKEREYVASIDQGGELDYAISVKGRFTISRDNAKNMVYLQMNSLKPEDTAVYYCAADFSGRGASNPDKYKYWGQGTQVTVSS
modifications: C-terminal (Gly)3 continues as -PEG12-Cys(Alexa647)-PEG5-Lys(azide)

What was measured:
[1] = molecular target: Class II MHC (mouse, on splenocytes and lymphoid organs) (mouse) (UniProt P14434+P14483); assay: in vivo PET competition; different amounts of unlabeled DC8 injected before 18F-DC8 dimer
[2] = molecular target: CD11b (mouse, on the CD11b+ mutuDC dendritic cell line and on myeloid cells in vivo) (mouse) (UniProt P05555); assay: FACS on the CD11b+ mutuDC cell line in vitro

Binder	binding [1]	binding [2]
B1	binds	
B2		binds
